Test results reported in the supplement of paper PMC8728848.
The list shows a part of the results.

Experiments:
Test in all cases: glycan array binding signal (z-score within array); higher = stronger binding
Settings in all cases: glycan notation: IUPAC condensed, linker removed
[1] = target: GlcNAc(b1-2)Gal(b1-3)GalNAc
How it was run: (§1)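 Glycan array binding is given as a within-array Z-score, which can be read as non-binding when negative. The arrays, 3228 of them, came from the Consortium for Functional Glycomics database and were retained only where the protein sequence was available. Z-scores were averaged across arrays of the same protein sequence at different concentrations or buffers and across linkers.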

[2] = target: GlcNAc(b1-2)Man(a1-3)[GlcNAc(b1-2)Man(a1-6)]Man(b1-4)GlcNAc(b1-4)GlcNAc
How it was run: as §1

[3] = target: GlcNAc(b1-2)Man(a1-3)[GlcNAc(b1-2)Man(a1-6)]Man(b1-4)GlcNAc(b1-4)[Fuc(a1-6)]GlcNAc
How it was run: as §1

[4] = target: GlcNAc(b1-2)Man(a1-3)[GlcNAc(b1-4)][GlcNAc(b1-2)Man(a1-6)]Man(b1-4)GlcNAc(b1-4)GlcNAc
How it was run: as §1

[5] = target: GlcNAc(b1-2)Man(a1-3)[GlcNAc(b1-4)][GlcNAc(b1-2)Man(a1-6)]Man(b1-4)GlcNAc(b1-4)[Fuc(a1-6)]GlcNAc
How it was run: as §1

[6] = target: GlcNAc(b1-2)[GlcNAc(b1-4)]Man(a1-3)[GlcNAc(b1-2)Man(a1-6)]Man(b1-4)GlcNAc(b1-4)GlcNAc
How it was run: as §1

[7] = target: GlcNAc(b1-2)[GlcNAc(b1-4)]Man(a1-3)[GlcNAc(b1-4)][GlcNAc(b1-2)Man(a1-6)]Man(b1-4)GlcNAc(b1-4)GlcNAc
How it was run: as §1

[8] = target: GlcNAc(b1-2)[GlcNAc(b1-4)]Man(a1-3)[GlcNAc(b1-4)][GlcNAc(b1-2)[GlcNAc(b1-6)]Man(a1-6)]Man(b1-4)GlcNAc(b1-4)GlcNAc
How it was run: as §1

[9] = target: GlcNAc(b1-2)[GlcNAc(b1-4)]Man(a1-3)[GlcNAc(b1-4)][GlcNAc(b1-2)[GlcNAc(b1-6)]Man(a1-6)]Man(b1-4)GlcNAc(b1-4)[Fuc(a1-6)]GlcNAc
How it was run: as §1

[10] = target: GlcNAc(b1-2)[GlcNAc(b1-6)]Man(a1-6)[GlcNAc(b1-2)Man(a1-3)]Man(b1-4)GlcNAc(b1-4)GlcNAc
How it was run: as §1

[11] = target: GlcNAc(b1-2)[GlcNAc(b1-6)]Man(a1-6)[GlcNAc(b1-2)Man(a1-3)]Man(b1-4)GlcNAc(b1-4)[Fuc(a1-6)]GlcNAc
How it was run: as §1

[12] = target: GlcNAc(b1-2)[GlcNAc(b1-6)]Man(a1-6)[GlcNAc(b1-4)][GlcNAc(b1-2)Man(a1-3)]Man(b1-4)GlcNAc(b1-4)GlcNAc
How it was run: as §1

GlcNAc(b1-3)Fuc = target: GlcNAc(b1-3)Fuc
How it was run: as §1

GlcNAc(b1-3)Gal = target: GlcNAc(b1-3)Gal
How it was run: as §1

[13] = target: GlcNAc(b1-3)Gal(b1-3)GalNAc
How it was run: as §1

GlcNAc(b1-3)Gal(b1-4)Glc = target: GlcNAc(b1-3)Gal(b1-4)Glc
How it was run: as §1

[14] = target: GlcNAc(b1-3)Gal(b1-4)GlcNAc
How it was run: as §1

[15] = target: GlcNAc(b1-3)Gal(b1-4)GlcNAc(b1-2)Man(a1-3)[GlcNAc(b1-3)Gal(b1-4)GlcNAc(b1-2)Man(a1-6)]Man(b1-4)GlcNAc(b1-4)GlcNAc
How it was run: as §1

B1: his-Lectin-24A (Drosophila melanogaster) (protein)
chain: MFRLSVLVLNLLLVSHEFSAGTAKIEIQPLPALCNGYCFPTLKPVMEYVAIHQDKWNTCTEILANEARKDQIQLNIQLDALKADVSNIKASQLSKDEKLDRMEREQFAMHESLETINRYLTVKLDRTKLQLEAIKNTMDYMKAQMDGYFSAINGVQCLQPGFEKIGDRYFYIEEDVELNWLDAQAKCRRMGGHLASIKTKQEFDAIVEKLDDSKSYFLGVNENTKTGDFVSAASGKSCLYHEWGPGEPHHNNDQERCVSILRKLMHVGNCTYEKRFICQYGI
glycan array binding signal (z-score) [1]: -0.893 | glycan array binding signal (z-score) [2]: -0.233 | glycan array binding signal (z-score) [3]: 0.72 | glycan array binding signal (z-score) [4]: -1.32 | glycan array binding signal (z-score) [5]: -0.9 | glycan array binding signal (z-score) [6]: -0.675 | glycan array binding signal (z-score) [7]: -1.06 | glycan array binding signal (z-score) [8]: 0.555 | glycan array binding signal (z-score) [9]: 2.05 | glycan array binding signal (z-score) [10]: -0.588 | glycan array binding signal (z-score) [11]: 1.69 | glycan array binding signal (z-score) [12]: -0.763 | glycan array binding signal (z-score) (GlcNAc(b1-3)Fuc): -0.062 | glycan array binding signal (z-score) (GlcNAc(b1-3)Gal): -0.752 | glycan array binding signal (z-score) [13]: -0.884 | glycan array binding signal (z-score) (GlcNAc(b1-3)Gal(b1-4)Glc): 0.074 | glycan array binding signal (z-score) [14]: -0.137 | glycan array binding signal (z-score) [15]: 0.459
